Data taken from the supplement of paper PMC4604168 (melanoma cell lines).
The other results are listed elsewhere or left out. Many values rest on one well or one pass, so single values are uncertain.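 Cells were imaged in 1,536-well plates, and nuclei stained with an antibody against cleaved PARP were counted against all DNA-stained nuclei to give the apoptosis fraction. Screening doses were chosen to leave most cells alive, and resting and induced cleaved-PARP levels differ strongly between cell lines.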

The compounds below were run on CBRC014 (line from a melanoma biopsy) (assay: cleaved PARP positive nuclei fraction relative to DMSO control; melanoma cells; higher = more apoptosis). Conditions: library dose: low library concentration; 72 h.

First: CN(C)S(=O)(=O)c1ccc2c(c1)/C(=C/c1cc3c([nH]1)CCCC3)C(=O)N2 + COc1cc2ncnc(Nc3ccc(Oc4ccccc4)cc3)c2cc1OC [SrcI1] (first compound 0.4 µM, partner dose 2 µM)
Second: O=C1NC(=O)/C(=C/c2ccc(-c3ccc(F)cc3O)o2)S1 + c1cc(-c2cnn3cc(-c4ccc(OCCN5CCCCC5)cc4)cnc23)ccn1 [Dorsomorphin] (first compound 1 µM, partner dose 0.4 µM)
The “cleaved PARP positive nuclei fraction” value of the first is higher: 121% for the first, 103% for the second.

First: NCC(=O)Nc1ccc(-n2nc(C(F)(F)F)cc2-c2ccc3c(ccc4ccccc43)c2)cc1 + Cn1cc(/C=C2\C(=O)Nc3cccnc32)c2ccccc21 [GW441756] (first compound 1 µM, partner dose 0.4 µM)
Second: O=C(O)c1ccc(-c2c[nH]c3ncc(-c4ccccc4)cc23)cc1C1CCCC1 + O=C(O)C(=O)Nc1sc2c(c1C(=O)O)CCNC2 [TCS401] (first compound 0.16 µM, partner dose 1.66667 µM)
The “cleaved PARP positive nuclei fraction” value of the first is lower: 85.6% for the first, 85.8% for the second.

First: O=C(Nc1ccccc1)c1cc([N+](=O)[O-])ccc1Cl + Oc1cc(-c2nc(-c3ccccc3)[nH]c2-c2ccncc2)ccc1Cl [L779450] (first compound 2 µM, partner dose 0.2 µM)
Second: COC(=O)c1sccc1S(=O)(=O)Nc1ccc(Nc2ccccc2)cc1OC + COc1ccc(COc2ccc(Cc3cnc(N)nc3N)cc2OC)cc1 [GW2580] (first compound 1 µM, partner dose 1 µM)
The “cleaved PARP positive nuclei fraction” value of the first is higher: 102% for the first, 95.6% for the second.

First: COc1cc2c(Oc3ccc4[nH]c(C)cc4c3F)ncnc2cc1OCCCN1CCCC1 [cediranib] + CCN(CC)CCCCNc1ncc2cc(-c3cc(OC)cc(OC)c3)c(NC(=O)NC(C)(C)C)nc2n1 [PD173074] (first compound 0.4 µM, partner dose 0.1 µM)
Second: COc1ccc(COc2ccc(Cc3cnc(N)nc3N)cc2OC)cc1 + O=S(=O)(c1ccccc1)N(CC(F)(F)F)c1ccc(C(O)(C(F)(F)F)C(F)(F)F)cc1 [T0901317] (first compound 1 µM, partner dose 1.4 µM)
The “cleaved PARP positive nuclei fraction” value of the first is higher: 100% for the first, 87.8% for the second.

Compared with `O=C1NC(=O)/C(=C/c2ccc(-c3ccc(F)cc3O)o2)S1` + COc1cc(N2CCC(N3CCN(C)CC3)CC2)ccc1Nc1ncc(Cl)c(Nc2ccccc2S(=O)(=O)C(C)C)n1 [NVP-TAE684] (first compound 1 µM, partner dose 0.08 µM), `O=C(Nc1ccccc1)c1cc([N+](=O)[O-])ccc1Cl` + COc1ccc(COc2ccc(Cc3cnc(N)nc3N)cc2OC)cc1 [GW2580] (first compound 2 µM, partner dose 1 µM) is higher in “cleaved PARP positive nuclei fraction” value: 90.5% for the first, 260% for the second.

Going from `CN(NC(=O)CC(=O)NN(C)C(=S)c1ccccc1)C(=S)c1ccccc1` + CCN(CC)CCCCNc1ncc2cc(-c3cc(OC)cc(OC)c3)c(NC(=O)NC(C)(C)C)nc2n1 [PD173074] (first compound 0.006 µM, partner dose 0.1 µM) to `O=S(=O)(c1ccccc1)N(CC(F)(F)F)c1ccc(C(O)(C(F)(F)F)C(F)(F)F)cc1` + CC(C)CCN1c2nc(Nc3cc(F)c(O)c(F)c3)ncc2N(C)C(=O)C1C [BID1870] (first compound 1.4 µM, partner dose 0.2 µM), the “cleaved PARP positive nuclei fraction” value falls from 756% to 103%.

Going from `NCC(=O)Nc1ccc(-n2nc(C(F)(F)F)cc2-c2ccc3c(ccc4ccccc43)c2)cc1` + Cc1cc([N+](=O)[O-])ccc1NS(=O)(=O)c1cc(Cl)ccc1Cl [FH535] (first compound 1 µM, partner dose 1 µM) to `COc1cc2c(Oc3ccc4[nH]c(C)cc4c3F)ncnc2cc1OCCCN1CCCC1` [cediranib] + COc1ccc(-c2ccc3c(N4CCOCC4)nc(N4C[C@@H](C)O[C@@H](C)C4)nc3n2)cc1CO [KU0063794] (first compound 0.4 µM, partner dose 0.02 µM), the “cleaved PARP positive nuclei fraction” value falls from 200% to 83.9%.

For `NCC(=O)Nc1ccc(-n2nc(C(F)(F)F)cc2-c2ccc3c(ccc4ccccc43)c2)cc1` + COc1ccc(-c2ccc3c(N4CCOCC4)nc(N4C[C@@H](C)O[C@@H](C)C4)nc3n2)cc1CO [KU0063794] (first compound 1 µM, partner dose 0.02 µM), the “cleaved PARP positive nuclei fraction” value was 75.2%.
